Paper PMC11455950, “Effects of SZV-2649, a new multiple ion channel inhibitor mexiletine analogue” (Scientific Reports, 2024)
Several values for one entry are separate records, joined by “and”; a condition that tells them apart may be missing. Equal values may be shown once.

Test system: anesthetized dogs
Assay: Atrial fibrillation induced by carbachol infusion and burst stimulation in anesthetized dogs
Assay type: in vivo, dog
Parameters: key to AF converted to SR?: N, response not observed; Y, response observed
Settings: i.v. 0.3 mg/kg, individual dogs

## CCCNCC(O)COc1ccccc1C(=O)CCc1ccccc1 (centres unmarked) [propafenone, reference compound]
  AF converted to SR?: Y
0.3 mg/kg
  AF converted to SR? (time printed in cell): 291 s and 89 s and 589 s and 15 s and 145 s
